Laboratory results from the supplement of paper PMC3334620.
The full ranking holds about 33,000 sequences; the median of “E-score (-0.5 to 0.5)” is about -8e-05, and the highest 2% start at about 0.23. This is one part of the list.

biological target: T1, Nrg2 (UniProt P38082); test: PBM E-score (8-mer binding enrichment) (E-score (-0.5 to 0.5)); higher = stronger / more preferred TF binding; conditions: protein concentration: 100 nM; construct: GST-full length
T1 sequence: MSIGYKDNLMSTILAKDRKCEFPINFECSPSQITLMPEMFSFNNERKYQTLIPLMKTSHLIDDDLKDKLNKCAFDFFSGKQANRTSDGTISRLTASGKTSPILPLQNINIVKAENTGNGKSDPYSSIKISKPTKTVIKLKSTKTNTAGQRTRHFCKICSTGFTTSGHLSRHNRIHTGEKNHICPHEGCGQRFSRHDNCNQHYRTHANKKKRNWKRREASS
Summary of the method: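 Bound GST-tagged yeast transcription factors, applied at about 100-200 nM to double-stranded universal all-10-mer Agilent arrays, were detected with fluorescent anti-GST. Scans were normalised with masliner. A modified Wilcoxon-Mann-Whitney statistic, the E-score, was assigned to each ungapped eight-base word pooled with its reverse complement by the Universal PBM Analysis Suite.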

Row | Sequence | PBM E-score
1 | AACAGACC | -0.0463
2 | CGTTATCC | 0.0133
3 | CCTGACCG | -0.0573
4 | CATTCGCC | -0.06
5 | AAAGATTT | 0.0643
6 | GAGTTTGC | 0.0418
7 | CACTTAAG | 0.0926
8 | CTAAGCTC | -0.157
9 | ACGGCCCT | -0.0277
10 | ATGGTGCG | -0.153
11 | GCCCATGA | 0.00643
12 | GCACGCCC | -0.0884
13 | AATCATGT | 0.0762
14 | GGTCCTCA | -0.15
15 | AGGTGACA | 0.0654
16 | ACATAACA | 0.0414
17 | AATGGCAG | 0.0917
18 | AGTCACCA | -0.102
19 | ATATTTGA | 0.0791
20 | ATGCCTTA | -0.272
21 | CCCGTCTA | -0.0372
22 | CATTACCG | -0.149
23 | CGATTAAC | 0.0113
24 | GAGGGGAC | 0.0965
25 | ACACATCA | -0.18

Row | Sequence | PBM E-score
26 | ACAGACCG | -0.00691
27 | ACTGTCTC | 0.0547
28 | TCTGGACA | -0.0443
29 | ACAGAGCG | -0.219
30 | ATTGTGCG | -0.0707
31 | ACTTAAGT | 0.0749
32 | AGCTTCGA | -0.00696
33 | AGGATTCG | 0.0081
34 | CATGAGTA | -0.134
35 | AATGGGCC | -0.0664
36 | ATCACAGC | 0.0436
37 | CCCATCAC | -0.0783
38 | CGAGAAGC | 0.0357
39 | ACCGGTCG | -0.251
40 | CTGTCATA | 0.0533
41 | CCCTGATC | 0.0782
42 | ACTCCGCA | -0.0638
43 | ACAGAACA | 0.149
44 | CCTGCTAC | 0.0716
45 | TAGGCGCA | 0.13
46 | CCATGGCA | -0.0119
47 | CACAATCG | -0.0996
48 | ACCCGGGA | 0.207
49 | GCGGAGTA | 0.0162
50 | CCGCTAAC | 0.0957

Copied from above: entries 26–29
Row | Sequence | PBM E-score
26 | ACAGACCG | -0.00691
27 | ACTGTCTC | 0.0547
28 | TCTGGACA | -0.0443
29 | ACAGAGCG | -0.219

Next part

Row | Sequence | PBM E-score
51 | GAAACAGC | -0.0901
52 | AGGTTACT | -0.0749
53 | CAGCGGAA | -0.152
54 | CAATATCA | 0.0345
55 | GTCAGAAC | -0.0554
56 | CCGACCCG | -0.0742
57 | GACGATTA | 0.0203
58 | GGAGTTAC | 0.0502
59 | AATCACAC | 0.037
60 | GAAGACGC | -0.0204
61 | CACCCCGG | -0.148
62 | GCTAAATA | 0.037
63 | CTATCTTA | 0.116
64 | CAAATGTA | 0.161
65 | CCGGGTGC | -0.0823
66 | CTCAACAG | -0.0628
67 | CCCAACAC | -0.00204
68 | CACTATGA | -0.0462
69 | ACTATAAT | 0.131
70 | AGGAAATC | 0.086
71 | CCACAAAA | 0.112
72 | ACGTTGCG | 0.0404
73 | GCCATAGC | 0.0313
74 | CCTGTAAC | 0.087
75 | AAATCATC | 0.162

Row | Sequence | PBM E-score
76 | AAAAATGT | -0.0423
77 | AGACTCTG | 0.0932
78 | AAGAGGCA | 0.0561
79 | GTTGTATA | 0.00908
80 | AAGTAGCT | -0.107
81 | AGAACAAG | 0.223
82 | AATGATCC | -0.182
83 | AGTTAGAG | 0.108
84 | CTGTTTCC | -0.208
85 | CACGTGCC | 0.0142
86 | CCAAGCAA | 0.0813
87 | GTTAGTGA | -0.0863
88 | AGAATTGA | -0.0242
89 | AAAGTCGG | -0.161
90 | ACGTGTGC | -0.103
91 | AGGTCTGA | 0.0872
92 | AGCAGTGG | 0.00894
93 | GACGGAAC | -0.186
94 | TTATCCAA | 0.152
95 | AACGCCGA | -0.0271
96 | CTGCGACC | -0.103
97 | GGACAATA | 0.239
98 | ATAGCGGA | -0.112
99 | CTAGCTTA | 0.0567
100 | AGCGGAAC | -0.046

Rewritten field by field: part of the list above.
AGACTCTG
  PBM E-score: 0.0932
CCAAGCAA
  PBM E-score: 0.0813
AGAATTGA
  PBM E-score: -0.0242
ACGTGTGC
  PBM E-score: -0.103

Going on with the list.

Row | Sequence | PBM E-score
101 | GACAGCGC | 0.0161
102 | CCTTGCCG | -0.0398
103 | AGAAAAAT | 0.045
104 | ACTCGAGG | 0.162
105 | CTTTCATC | 0.0159
106 | TCATACGA | 0.0412
107 | CGCGGCCC | 0.0754
108 | GAGCTGAC | 0.146
109 | CTTTAGCA | -0.112
110 | CGGAAGAC | -0.0798
111 | AAGTTGGA | 0.134
112 | ACATGTGG | 0.142
113 | GCCTTAAA | -0.0715
114 | ACGCCCAT | 0.0455
115 | CACTATTA | 0.132
116 | CATCAGAC | 0.119
117 | CGGTTTAA | -0.132
118 | CGTTAGGA | 0.0961
119 | GCAGAAAA | 0.139
120 | CCATGAGG | -0.0123
121 | CGATATTA | 0.23
122 | ACCCATGG | 0.084
123 | ATTACTGC | 0.214
124 | AGCTCCCA | -0.0291
125 | GTAGAGAA | 0.0653

Row | Sequence | PBM E-score
126 | CCAACTAA | 0.0905
127 | AAAAACTC | -0.0343
128 | CCAGAATA | 0.127
129 | AACATCTA | -0.068
130 | ACCGTGCA | -0.0396
131 | CCACTTCA | 0.104
132 | CACGGTCC | -0.211
133 | ACCCTTCC | 0.107
134 | CAGATTCA | -0.172
135 | GTGGTAAA | -0.0868
136 | GATTCTGC | 0.188
137 | ACTTCGGC | -0.0688
138 | ATCAAACG | 0.0157
139 | GCGATCGA | 0.186
140 | GCTAATTA | 0.101
141 | ATCCCGAT | 0.115
142 | ATTGAAAA | 0.199
143 | CTTGTGGC | -0.12
144 | ATTATAAT | 0.191
145 | ACCTCCGT | -0.0785
146 | GTACGTTA | -0.00038
147 | CACTTAAC | -0.104
148 | GGGTCTTA | 0.0557
149 | CACGGCAC | -0.238
150 | ACAATCAG | -0.0138

Row | Sequence | PBM E-score
151 | ACGCCAGT | -0.0887
152 | ACCAACTC | -0.0268
153 | CCAGAAAC | 0.0115
154 | AGTCTAAA | -0.0551
155 | CTTATACC | 0.0334
156 | CTTCCGAC | -0.248
157 | GGGGCCCC | 0.267
158 | GTTTCGTA | 0.149
159 | AAGTTGCA | -0.0133
160 | AAGCGGCA | 0.044
161 | GAAGCAAA | -0.118
162 | AGTACGAT | 0.0669
163 | CGGGGCGA | -0.0348
164 | AACCCAAG | 0.0278
165 | CAGTAGGC | 0.00974
166 | TGTACGAA | 0.0242
167 | GTTATATA | 0.121
168 | CCGCGCGA | 0.202
169 | ATCAACTC | 0.0722
170 | CTCGAGAC | 0.205
171 | CTATCGGC | 0.0172
172 | CGTTGTGC | -0.00609
